Laboratory results published in US9073975B2 (SANOFI, priority 2010, dated 2015).
Some peptides are written in HELM: one residue between dots, names in brackets for other building blocks, links after the first $.

Assay: general procedure: Fmoc solid-phase peptide synthesis; 2-Chlorotrityl chloride resin; DIC/HOBt (chain assembly); HATU/DIEA (cyclisation in solution)
Conditions: cyclisation step

Substance “PEPTIDE1{L.H.N.L.[AcLys-eps].T.E.R.M.A}$PEPTIDE1,PEPTIDE1,1:R1-10:R2$$$V2.0” has a cyclisation yield of 3%.
